The results in this text go back to paper PMC5564810.

Sequences of proteins named here, by UniProt entry; tags and fusion partners are left off. A change or cut given only in a name is not applied to a line headed by its entry. A line that says so, or that is headed by a name, gives the form on record, which may keep a tag or linker. Residues count along the entry.
UniProt P17931: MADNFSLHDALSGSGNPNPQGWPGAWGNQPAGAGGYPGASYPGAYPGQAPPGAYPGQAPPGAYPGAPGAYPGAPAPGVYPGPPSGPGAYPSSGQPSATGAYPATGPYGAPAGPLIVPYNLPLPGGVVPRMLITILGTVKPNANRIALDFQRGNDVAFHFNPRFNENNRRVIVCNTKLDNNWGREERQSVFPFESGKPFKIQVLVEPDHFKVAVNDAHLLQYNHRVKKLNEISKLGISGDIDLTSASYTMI
His-tagged G69-250 (Gal-3 residues 69-250): residues 69-250 of P17931
UniProt P08575, residues 26-1306: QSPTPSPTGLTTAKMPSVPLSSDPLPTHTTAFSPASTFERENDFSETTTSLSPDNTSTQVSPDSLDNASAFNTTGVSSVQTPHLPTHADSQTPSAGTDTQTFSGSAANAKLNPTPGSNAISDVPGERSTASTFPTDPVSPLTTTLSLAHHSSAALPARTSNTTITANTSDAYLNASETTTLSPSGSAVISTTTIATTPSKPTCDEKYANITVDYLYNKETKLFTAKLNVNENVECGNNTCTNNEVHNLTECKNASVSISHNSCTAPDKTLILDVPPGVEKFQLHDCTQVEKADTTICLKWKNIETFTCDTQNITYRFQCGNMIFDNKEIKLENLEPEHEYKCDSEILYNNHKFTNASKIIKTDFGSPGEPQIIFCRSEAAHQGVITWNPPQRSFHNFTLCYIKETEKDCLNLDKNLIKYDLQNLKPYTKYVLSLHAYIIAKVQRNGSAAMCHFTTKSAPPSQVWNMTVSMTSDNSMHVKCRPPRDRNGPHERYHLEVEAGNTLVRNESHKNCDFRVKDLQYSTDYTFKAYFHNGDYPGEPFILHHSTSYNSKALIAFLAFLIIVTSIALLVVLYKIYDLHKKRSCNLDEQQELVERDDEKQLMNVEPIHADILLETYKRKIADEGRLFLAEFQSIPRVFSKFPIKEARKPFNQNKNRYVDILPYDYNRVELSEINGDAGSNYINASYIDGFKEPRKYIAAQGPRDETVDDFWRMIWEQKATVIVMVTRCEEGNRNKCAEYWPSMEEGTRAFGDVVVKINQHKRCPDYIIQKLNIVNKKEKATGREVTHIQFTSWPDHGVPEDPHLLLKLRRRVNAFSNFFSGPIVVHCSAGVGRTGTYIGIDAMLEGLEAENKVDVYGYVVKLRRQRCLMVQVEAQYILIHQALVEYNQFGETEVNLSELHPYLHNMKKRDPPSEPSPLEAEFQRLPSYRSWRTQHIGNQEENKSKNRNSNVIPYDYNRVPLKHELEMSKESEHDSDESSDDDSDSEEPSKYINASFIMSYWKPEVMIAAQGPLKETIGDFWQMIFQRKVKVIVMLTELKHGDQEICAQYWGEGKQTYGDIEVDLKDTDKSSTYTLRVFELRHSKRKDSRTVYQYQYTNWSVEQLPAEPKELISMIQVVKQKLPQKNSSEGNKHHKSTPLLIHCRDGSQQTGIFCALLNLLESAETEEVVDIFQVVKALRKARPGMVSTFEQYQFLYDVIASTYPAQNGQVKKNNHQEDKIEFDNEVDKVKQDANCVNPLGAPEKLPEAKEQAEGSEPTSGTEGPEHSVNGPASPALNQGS

No constants are given. Whether binding was seen depends on the method and setting. Binding seen in cells or lysates may run through a third protein. Some binding calls cover weakened binding; strength is not graded here.

Experiment [1] has as its target His-tagged G69-250 (Gal-3 residues 69-250) (human) (UniProt P17931). The experiment in a line: pull-down; 20 ug His-Gal-3 or His-G69-250 immobilised on 20 uL Ni-NTA beads (2 h, 4 C), washed in PBS, incubated with Jurkat cell lysate (5x10^6 cells) 2 h at 4 C; CD45 detected by western blotting; only the target purified.
In experiment [2] the target is His-tagged full-length Gal-3 (galectin-3) (human) (UniProt P17931). The description is as above.

In the case of “CD45 (from UniProt P08575 26-1306) (receptor)”, the binding entry in experiment [1] and in experiment [2] was “binds” each time.
